## Drug screen on melanoma cell lines: cell count

From a melanoma drug combination screen (doi:10.1371/journal.pone.0140310); values rounded.

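Human melanoma cell lines in 1,536-well plates were treated with two drugs together for 72 h, then fixed, stained and imaged. The read-out is cell count (nuclei) in % of the DMSO control; lower values mean stronger growth inhibition or killing. Concentrations were fixed for each drug; these are the higher of two levels. These are primary screening values without error estimates.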
Only some of the drugs and lines screened are listed, without regard to their results.
An entry leaves out what has no value listed here.

Compounds and concentrations:
SNS-314 (0.004 µM): O=C(Nc1cccc(Cl)c1)Nc1ncc(CCNc2ncnc3ccsc23)s1
fingolimod (10 µM): CCCCCCCCc1ccc(CCC(N)(CO)CO)cc1
GW9662 (10 µM): O=C(Nc1ccccc1)c1cc([N+](=O)[O-])ccc1Cl
dorsomorphin (2 µM): c1cc(-c2cnn3cc(-c4ccc(OCCN5CCCCC5)cc4)cnc23)ccn1
ZM336372 (10 µM): Cc1ccc(NC(=O)c2cccc(N(C)C)c2)cc1NC(=O)c1ccc(O)cc1
MK-1775 (0.1 µM): C=CCn1c(=O)c2cnc(Nc3ccc(N4CCN(C)CC4)cc3)nc2n1-c1cccc(C(C)(C)O)n1
embelin (6 µM): CCCCCCCCCCCC1=C(O)C(=O)C=C(O)C1=O
NVP-TAE684 (0.4 µM): COc1cc(N2CCC(N3CCN(C)CC3)CC2)ccc1Nc1ncc(Cl)c(Nc2ccccc2S(=O)(=O)C(C)C)n1
BI-78D3 (1 µM): O=c1[nH]nc(Sc2ncc([N+](=O)[O-])s2)n1-c1ccc2c(c1)OCCO2
selumetinib (0.075 µM): Cn1cnc2c(F)c(Nc3ccc(Br)cc3Cl)c(C(=O)NOCCO)cc21
T0901317 (7 µM): O=S(=O)(c1ccccc1)N(CC(F)(F)F)c1ccc(C(O)(C(F)(F)F)C(F)(F)F)cc1

Pair: ZM336372 and fingolimod
C32: 4.6
COLO 800: 5.6
COLO 792: 2.1
COLO 829: 35.1

Pair: ZM336372 and selumetinib
C32: 62.7
COLO 800: 75.3
COLO 792: 72.8
COLO 829: 100

Pair: MK-1775 and dorsomorphin
C32: 62.4
COLO 800: 87.4
COLO 792: 62.9
COLO 829: 80.1

Pair: selumetinib and embelin
C32: 75.7
COLO 800: 90.7
COLO 792: 67.6
COLO 829: 98.5

Pair: MK-1775 and T0901317
C32: 89.0
COLO 800: 60.5
COLO 792: 79.9
COLO 829: 87.4

Pair: dorsomorphin and ZM336372
C32: 63.2
COLO 800: 97.1
COLO 792: 92.3
COLO 829: 102

Pair: GW9662 and BI-78D3
C32: 100
COLO 800: 77.6
COLO 792: 86.8
COLO 829: 56.9

Pair: embelin and BI-78D3
C32: 94.9
COLO 800: 86.2
COLO 792: 83.4
COLO 829: 60.0

Pair: selumetinib and GW9662
C32: 73.6
COLO 800: 76.3
COLO 792: 69.9
COLO 829: 87.1

Pair: fingolimod and MK-1775
C32: 9.7
COLO 800: 8.2
COLO 792: 3.4
WM451Lu: 27.5
COLO 829: 34.2

Pair: selumetinib and SNS-314
C32: 67.8
COLO 800: 43.8
COLO 792: 49.7
COLO 829: 71.5

Pair: embelin and SNS-314
C32: 71.1
COLO 800: 65.3
COLO 792: 55.1
WM451Lu: 40.1
COLO 829: 68.0

Pair: fingolimod and SNS-314
C32: 9.7
COLO 800: 14.2
COLO 792: 3.4
COLO 829: 41.2

Pair: T0901317 and fingolimod
C32: 14.6
COLO 800: 10.1
COLO 792: 15.3
COLO 829: 31.0

Pair: T0901317 and ZM336372
C32: 86.0
COLO 800: 140
COLO 792: 91.0
COLO 829: 71.8

Pair: NVP-TAE684 and fingolimod
C32: 2.0
COLO 800: 17.1
COLO 792: 21.3
COLO 829: 55.9

Pair: dorsomorphin and selumetinib
C32: 69.6
COLO 800: 122
COLO 792: 81.6
COLO 829: 105

Pair: fingolimod and GW9662
C32: 3.7
COLO 800: 3.2
COLO 792: 9.4
COLO 829: 21.6

Pair: NVP-TAE684 and SNS-314
C32: 77.1
COLO 800: 34.3
COLO 792: 63.1
WM451Lu: 63.5
COLO 829: 87.4

Pair: NVP-TAE684 and BI-78D3
C32: 79.1
COLO 800: 49.8
COLO 792: 81.9
COLO 829: 94.0

Pair: selumetinib and NVP-TAE684
C32: 65.5
COLO 800: 75.2
COLO 792: 70.8
COLO 829: 84.2

Pair: BI-78D3 and dorsomorphin
C32: 56.0
COLO 800: 60.8
COLO 792: 75.5
COLO 829: 73.8

Pair: T0901317 and BI-78D3
C32: 84.0
COLO 800: 51.0
COLO 792: 96.8
COLO 829: 85.3

Pair: ZM336372 and GW9662
C32: 84.1
COLO 800: 79.4
COLO 792: 91.4
COLO 829: 74.1

Pair: dorsomorphin and SNS-314
C32: 63.0
COLO 800: 35.3
COLO 792: 72.6
COLO 829: 78.6

Pair: selumetinib and T0901317
C32: 80.6
COLO 800: 96.6
COLO 792: 87.5
COLO 829: 99.3